Measured values as given in paper PMC10759229.
Results are given in words; binding and its absence hold for the method and conditions named. In cells and extracts the contact can be indirect. Some entries that bind do so weakly or less than the wild type. Where a sequence is shown, tags or fusion partners need not be part of it.

The chains behind the UniProt entries cited, without tags or fusion partners.
UniProt Q5S007: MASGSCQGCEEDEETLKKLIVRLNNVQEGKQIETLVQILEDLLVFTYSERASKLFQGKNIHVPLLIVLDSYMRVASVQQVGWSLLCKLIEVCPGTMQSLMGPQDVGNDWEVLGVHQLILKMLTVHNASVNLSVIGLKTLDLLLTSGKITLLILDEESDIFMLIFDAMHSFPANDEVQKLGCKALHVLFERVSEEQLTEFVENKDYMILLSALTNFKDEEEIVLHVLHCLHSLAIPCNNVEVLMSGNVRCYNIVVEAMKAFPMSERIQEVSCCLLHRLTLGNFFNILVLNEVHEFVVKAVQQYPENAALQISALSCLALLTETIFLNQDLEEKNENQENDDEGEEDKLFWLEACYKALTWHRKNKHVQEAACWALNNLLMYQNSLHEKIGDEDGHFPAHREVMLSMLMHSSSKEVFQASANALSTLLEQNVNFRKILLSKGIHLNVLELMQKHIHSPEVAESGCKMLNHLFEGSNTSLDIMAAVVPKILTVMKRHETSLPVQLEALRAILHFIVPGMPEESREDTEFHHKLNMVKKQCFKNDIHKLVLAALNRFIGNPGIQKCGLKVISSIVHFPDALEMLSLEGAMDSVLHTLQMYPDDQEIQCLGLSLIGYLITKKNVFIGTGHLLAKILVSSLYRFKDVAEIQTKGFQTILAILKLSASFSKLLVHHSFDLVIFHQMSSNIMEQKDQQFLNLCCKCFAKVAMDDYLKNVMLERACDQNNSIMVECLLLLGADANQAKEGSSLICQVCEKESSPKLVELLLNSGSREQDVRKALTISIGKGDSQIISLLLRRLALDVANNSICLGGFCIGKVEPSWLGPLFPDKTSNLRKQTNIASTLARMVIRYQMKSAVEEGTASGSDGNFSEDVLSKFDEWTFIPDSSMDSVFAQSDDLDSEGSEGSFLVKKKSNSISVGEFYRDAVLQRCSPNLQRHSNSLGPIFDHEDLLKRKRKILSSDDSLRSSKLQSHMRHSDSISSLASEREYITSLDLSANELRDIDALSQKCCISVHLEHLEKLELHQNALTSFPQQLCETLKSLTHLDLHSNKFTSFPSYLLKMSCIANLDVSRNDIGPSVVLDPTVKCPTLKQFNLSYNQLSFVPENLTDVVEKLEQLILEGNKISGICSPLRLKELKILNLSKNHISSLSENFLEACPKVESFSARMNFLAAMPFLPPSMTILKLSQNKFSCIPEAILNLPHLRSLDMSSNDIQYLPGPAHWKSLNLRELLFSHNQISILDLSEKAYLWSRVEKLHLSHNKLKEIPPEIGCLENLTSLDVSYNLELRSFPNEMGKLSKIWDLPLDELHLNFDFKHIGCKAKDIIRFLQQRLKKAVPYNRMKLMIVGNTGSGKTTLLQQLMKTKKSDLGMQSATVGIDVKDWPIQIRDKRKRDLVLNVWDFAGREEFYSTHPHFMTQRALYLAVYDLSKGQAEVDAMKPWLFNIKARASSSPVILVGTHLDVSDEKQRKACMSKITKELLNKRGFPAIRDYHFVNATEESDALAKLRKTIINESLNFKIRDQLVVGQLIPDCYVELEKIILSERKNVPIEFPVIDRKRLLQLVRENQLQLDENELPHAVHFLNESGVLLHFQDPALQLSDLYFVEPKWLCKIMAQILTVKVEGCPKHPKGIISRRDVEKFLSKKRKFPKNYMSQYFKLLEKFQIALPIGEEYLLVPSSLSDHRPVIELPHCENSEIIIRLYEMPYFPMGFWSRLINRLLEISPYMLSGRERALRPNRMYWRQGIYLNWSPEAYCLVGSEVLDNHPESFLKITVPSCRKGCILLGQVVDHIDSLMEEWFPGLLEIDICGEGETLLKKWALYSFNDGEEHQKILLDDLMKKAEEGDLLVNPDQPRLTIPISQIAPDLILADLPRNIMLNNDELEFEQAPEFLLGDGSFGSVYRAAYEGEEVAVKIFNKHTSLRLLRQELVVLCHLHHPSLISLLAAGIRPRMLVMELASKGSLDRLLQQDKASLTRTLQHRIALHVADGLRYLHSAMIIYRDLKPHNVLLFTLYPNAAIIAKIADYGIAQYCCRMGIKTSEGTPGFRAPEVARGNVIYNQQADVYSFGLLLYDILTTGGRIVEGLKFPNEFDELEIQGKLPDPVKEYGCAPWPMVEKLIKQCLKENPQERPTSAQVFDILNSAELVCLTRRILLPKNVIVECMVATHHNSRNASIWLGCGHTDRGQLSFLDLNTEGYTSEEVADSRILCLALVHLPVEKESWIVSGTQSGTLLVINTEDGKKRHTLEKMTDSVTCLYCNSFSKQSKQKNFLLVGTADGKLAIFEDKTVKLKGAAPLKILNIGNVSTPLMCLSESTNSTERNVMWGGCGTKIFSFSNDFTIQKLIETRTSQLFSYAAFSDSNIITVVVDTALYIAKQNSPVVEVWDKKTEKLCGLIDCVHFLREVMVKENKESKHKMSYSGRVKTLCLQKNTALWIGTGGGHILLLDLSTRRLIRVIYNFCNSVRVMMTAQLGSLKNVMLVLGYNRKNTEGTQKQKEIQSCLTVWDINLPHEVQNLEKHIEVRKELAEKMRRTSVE
UniProt P67775: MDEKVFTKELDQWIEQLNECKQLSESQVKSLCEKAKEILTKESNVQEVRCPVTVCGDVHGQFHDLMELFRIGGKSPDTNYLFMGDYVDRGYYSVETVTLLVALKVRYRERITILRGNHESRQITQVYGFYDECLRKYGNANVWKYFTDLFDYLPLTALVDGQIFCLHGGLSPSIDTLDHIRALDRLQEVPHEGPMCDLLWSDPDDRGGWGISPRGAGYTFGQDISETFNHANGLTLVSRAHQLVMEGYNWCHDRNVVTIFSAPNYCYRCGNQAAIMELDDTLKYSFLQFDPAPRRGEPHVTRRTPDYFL

T1: 3xFlag-PPP2R2C wild-type (PP2A regulatory subunit B, gamma isoform a) (UniProt Q9Y2T4)
T1 sequence: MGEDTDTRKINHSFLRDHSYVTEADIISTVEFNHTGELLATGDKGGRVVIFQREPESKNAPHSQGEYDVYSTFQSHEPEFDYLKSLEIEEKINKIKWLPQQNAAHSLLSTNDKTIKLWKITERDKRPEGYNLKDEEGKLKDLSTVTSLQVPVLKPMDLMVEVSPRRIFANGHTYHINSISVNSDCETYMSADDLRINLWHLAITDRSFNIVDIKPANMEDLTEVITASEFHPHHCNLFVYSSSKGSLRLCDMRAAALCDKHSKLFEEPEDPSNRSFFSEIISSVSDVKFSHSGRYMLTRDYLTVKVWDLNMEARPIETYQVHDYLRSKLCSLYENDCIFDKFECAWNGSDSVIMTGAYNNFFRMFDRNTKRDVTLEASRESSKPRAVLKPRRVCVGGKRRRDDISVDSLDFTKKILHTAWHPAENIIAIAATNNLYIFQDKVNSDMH


Key:
[1] = target: GFP-LRRK2 WT (leucine-rich repeat kinase 2) (UniProt Q5S007); assay: co-IP; HEK293T cells co-transfected with GFP-LRRK2 WT (IP) and 3xFlag-PPP2R2C WT or S381A; lysate on beads, 4°C; western blot with quantification (Figure 4A, B)
[2] = target: GFP-PPP2CA wild-type (PP2A catalytic subunit) (UniProt P67775); assay: co-IP; HEK293T cells co-transfected with GFP-PPP2CA WT and 3xFlag-PPP2R2C WT, S381A or S381D; lysate on GFP-TrapA or anti-Flag M2 agarose beads, 4°C; western blot with quantification (Figure 2)
[3] = target: GFP-LRRK2 WT (leucine-rich repeat kinase 2) (UniProt Q5S007); assay: proximity ligation; HEK293T cells co-transfected with GFP-LRRK2 WT and 3xFlag-PPP2R2C WT or S381A; fixed, permeabilised; rabbit anti-LRRK2 MJFF2 (c41-2) and mouse anti-Flag M2; confocal imaging
[4] = target: T1, 3xFlag-PPP2R2C wild-type (PP2A regulatory subunit B, gamma isoform a); assay: co-IP; HEK293T cells co-transfected with 3xFlag-PPP2R2C and 2xMyc-PAK6; lysate incubated with anti-Flag M2 agarose or GFP-TrapA beads for 2 h or overnight at 4°C; western blot (Figures 1B and 3D)

binding [1]	binding [2]	binding [3]	binding [4]	Binder
binds	binds	binds		3xFlag-PPP2R2C wild-type (PP2A regulatory subunit B, gamma isoform a) (protein, UniProt Q9Y2T4-1 1-447) MGEDTDTRKINHSFLRDHSYVTEADIISTVEFNHTGELLATGDKGGRVVIFQREPESKNAPHSQGEYDVYSTFQSHEPEFDYLKSLEIEEKINKIKWLPQQNAAHSLLSTNDKTIKLWKITERDKRPEGYNLKDEEGKLKDLSTVTSLQVPVLKPMDLMVEVSPRRIFANGHTYHINSISVNSDCETYMSADDLRINLWHLAITDRSFNIVDIKPANMEDLTEVITASEFHPHHCNLFVYSSSKGSLRLCDMRAAALCDKHSKLFEEPEDPSNRSFFSEIISSVSDVKFSHSGRYMLTRDYLTVKVWDLNMEARPIETYQVHDYLRSKLCSLYENDCIFDKFECAWNGSDSVIMTGAYNNFFRMFDRNTKRDVTLEASRESSKPRAVLKPRRVCVGGKRRRDDISVDSLDFTKKILHTAWHPAENIIAIAATNNLYIFQDKVNSDMH
binds	binds	binds		3xFlag-PPP2R2C S381A (phosphodeficient) (protein, UniProt Q9Y2T4-1 1-447) MGEDTDTRKINHSFLRDHSYVTEADIISTVEFNHTGELLATGDKGGRVVIFQREPESKNAPHSQGEYDVYSTFQSHEPEFDYLKSLEIEEKINKIKWLPQQNAAHSLLSTNDKTIKLWKITERDKRPEGYNLKDEEGKLKDLSTVTSLQVPVLKPMDLMVEVSPRRIFANGHTYHINSISVNSDCETYMSADDLRINLWHLAITDRSFNIVDIKPANMEDLTEVITASEFHPHHCNLFVYSSSKGSLRLCDMRAAALCDKHSKLFEEPEDPSNRSFFSEIISSVSDVKFSHSGRYMLTRDYLTVKVWDLNMEARPIETYQVHDYLRSKLCSLYENDCIFDKFECAWNGSDSVIMTGAYNNFFRMFDRNTKRDVTLEASREASKPRAVLKPRRVCVGGKRRRDDISVDSLDFTKKILHTAWHPAENIIAIAATNNLYIFQDKVNSDMH
	binds			3xFlag-PPP2R2C S381D (phosphomimetic) (protein, UniProt Q9Y2T4-1 1-447) MGEDTDTRKINHSFLRDHSYVTEADIISTVEFNHTGELLATGDKGGRVVIFQREPESKNAPHSQGEYDVYSTFQSHEPEFDYLKSLEIEEKINKIKWLPQQNAAHSLLSTNDKTIKLWKITERDKRPEGYNLKDEEGKLKDLSTVTSLQVPVLKPMDLMVEVSPRRIFANGHTYHINSISVNSDCETYMSADDLRINLWHLAITDRSFNIVDIKPANMEDLTEVITASEFHPHHCNLFVYSSSKGSLRLCDMRAAALCDKHSKLFEEPEDPSNRSFFSEIISSVSDVKFSHSGRYMLTRDYLTVKVWDLNMEARPIETYQVHDYLRSKLCSLYENDCIFDKFECAWNGSDSVIMTGAYNNFFRMFDRNTKRDVTLEASREDSKPRAVLKPRRVCVGGKRRRDDISVDSLDFTKKILHTAWHPAENIIAIAATNNLYIFQDKVNSDMH
			binds	2xMyc-PAK6 K436M (kinase dead) (enzyme, UniProt Q9NQU5 1-681) MFRKKKKKRPEISAPQNFQHRVHTSFDPKEGKFVGLPPQWQNILDTLRRPKPVVDPSRITRVQLQPMKTVVRGSAMPVDGYISGLLNDIQKLSVISSNTLRGRSPTSRRRAQSLGLLGDEHWATDPDMYLQSPQSERTDPHGLYLSCNGGTPAGHKQMPWPEPQSPRVLPNGLAAKAQSLGPAEFQGASQRCLQLGACLQSSPPGASPPTGTNRHGMKAAKHGSEEARPQSCLVGSATGRPGGEGSPSPKTRESSLKRRLFRSMFLSTAATAPPSSSKPGPPPQSKPNSSFRPPQKDNPPSLVAKAQSLPSDQPVGTFSPLTTSDTSSPQKSLRTAPATGQLPGRSSPAGSPRTWHAQISTSNLYLPQDPTVAKGALAGEDTGVVTHEQFKAALRMVVDQGDPRLLLDSYVKIGEGSTGIVCLAREKHSGRQVAVMMMDLRKQQRRELLFNEVVIMRDYQHFNVVEMYKSYLVGEELWVLMEFLQGGALTDIVSQVRLNEEQIATVCEAVLQALAYLHAQGVIHRDIKSDSILLTLDGRVKLSDFGFCAQISKDVPKRKSLVGTPYWMAPEVISRSLYATEVDIWSLGIMVIEMVDGEPPYFSDSPVQAMKRLRDSPPPKLKNSHKVSPVLRDFLERMLVRDPQERATAQELLDHPFLLQTGLPECLVPLIQLYRKQTSTC
